Data set [1] concerns the target T1, Uhrf1 (Np95) SRA domain (mouse) (UniProt Q8VDF2).
T1 sequence (looked up): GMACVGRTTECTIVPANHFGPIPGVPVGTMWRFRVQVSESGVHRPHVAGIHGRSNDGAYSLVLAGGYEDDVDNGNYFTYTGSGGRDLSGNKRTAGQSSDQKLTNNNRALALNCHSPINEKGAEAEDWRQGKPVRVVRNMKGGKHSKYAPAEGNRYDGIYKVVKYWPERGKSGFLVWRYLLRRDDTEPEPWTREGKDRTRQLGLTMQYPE
As to the kind of experiment: competition with a labelled probe. To be noted: 5 uM SRA, 1 uM 32P-CG/5mCG, EMSA/competition: 25 mM HEPES-NaOH pH 7.4, 0.1 M NaCl, 0.1 mM TCEP, 250 ng poly(dI-dC)(dI-dC), 4 C, 30 min, 7.5% native PAGE in 1x TBE, recombinant protein, residues 405-613.

Data set [2] has as its target T1, Uhrf1 (Np95) SRA domain (mouse). As to the kind of experiment: EMSA. To be noted: 0-3 uM SRA, 1 uM DNA, 250 ng poly(dI-dC), affinity lower than for CG/5mCG; 5hmC at position 7 of strand 2 (GCAATCXGGTAG, X = 5hmC); EMSA/competition: 25 mM HEPES-NaOH pH 7.4, 0.1 M NaCl, 0.1 mM TCEP, 250 ng poly(dI-dC)(dI-dC), 4 C, 30 min; 7.5% native PAGE in 1x TBE; recombinant protein; residues 405-613.

The comparison behind a weaker result is the experiment's own reference, which may not be listed here. Where a protein sequence is shown, tags need not be part of it. For part of these data: For at least one entry, the source does not settle the construct or the ends of the probe. For part of these data: At least one verdict rests on a figure or table, not on a statement of the authors.

With “CTACCGGATTGC (double strand) [CG/5mCG (hemi-methylated 12-bp)]”, the binding result in data set [1] (0-10 uM unlabelled CG/5mCG, 5mC at position 7 of strand 2 (GCAATCXGGTAG, X = 5mC)) was “binds”.

As to “CTACCGGATTGC (double strand) [CG/5hmCG (hemi-hydroxymethylated 12-bp)]”, the binding result in data set [2] is listed as “binds more weakly”; in data set [1] (0-10 uM unlabelled CG/5hmCG, excess could not effectively compete, 5hmC at position 7 of strand 2 (GCAATCXGGTAG, X = 5hmC)), “binds more weakly”.

The values are drawn from publication PMC3858372, “Cell Cycle-Dependent Turnover of 5-Hydroxymethyl Cytosine in Mouse Embryonic Stem Cells”.
